Data source: PubChem BioAssay AID1259298 (Sanger Institute, 2017)
Shown is a random part of 794 reagents tested. 20 of them (2.5%) were called active. 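Calls rest only on the knock-down-alone score; drug synergy scores played no part in them.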 Unmarked entries are inactive. Further read-outs or replicates are left out here. No sequences are given here. The record does not give: the amount of reagent, the time to read-out.

- Screen: 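Kinase knock-downs that cut colorectal cancer cell viability or act with targeted drugs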 (primary screen)
- Cells: HT55 human colorectal cancer cell line
- Reagent: siRNA pool against human genes
- Challenge: anchor drug BYL719 1 µM, cetuximab 5 µg/ml or trametinib 10 nM, or DMSO vehicle alone
- Read-out: 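Mean viability over replicates versus non-targeting pool, a robust z-score without drug, and per-drug synergy scores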
- Direction: robust z-score, knock-down alone: higher = more cells remaining; low means essential gene
- Hit rule: 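Essential when the robust z-score for knock-down alone with DMSO is below -3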
- Meaning of the calls: active = essential (knock-down alone); inactive = no change alone

For ALDH18A1, what does the deposit list?
robust z-score, knock-down alone: 0.58

Which result is listed for GRK5?
robust z-score, knock-down alone: 0.58

What did the screen give for MLKL?
robust z-score, knock-down alone: 0.58

How did the screen score LIMK2?
robust z-score, knock-down alone: 0.58

With BCOR, what was measured?
robust z-score, knock-down alone: -1.56

With PRKAR2A, what was measured?
robust z-score, knock-down alone: 0.58

With BMX, what was measured?
robust z-score, knock-down alone: 0.58

What is on record for PCK1?
robust z-score, knock-down alone: -1.52

Which result is listed for DGKG?
robust z-score, knock-down alone: 0.58

What is on record for IPPK?
robust z-score, knock-down alone: -1.79

With SLK, how do the results read?
robust z-score, knock-down alone: 0.58

4 of these entries, set out differently:
gene | robust z-score, knock-down alone
PCK1 | -1.52
DGKG | 0.58
IPPK | -1.79
SLK | 0.58

Additional results follow:
With CDKL3, how do the results read?
robust z-score, knock-down alone: 0.58

With MAGI1, what was measured?
robust z-score, knock-down alone: 0.58

Which result is listed for MASTL?
robust z-score, knock-down alone: 0.58

For NUAK1, what does the deposit list?
robust z-score, knock-down alone: -0.411

What did the screen give for CDC7?
robust z-score, knock-down alone: 0.58

Which result is listed for PHKG1?
robust z-score, knock-down alone: 0.58

What did the screen give for DBF4?
robust z-score, knock-down alone: 0.58

With MINK1, what was measured?
robust z-score, knock-down alone: 0.58

What did the screen give for STK11?
robust z-score, knock-down alone: -0.0163

Which result is listed for TRIB1?
robust z-score, knock-down alone: 0.58

Which result is listed for FN3K?
robust z-score, knock-down alone: -0.0285

With COMMD3, what does the deposit list?
robust z-score, knock-down alone: -0.0339

For FGFR3, what does the deposit list?
robust z-score, knock-down alone: -1.44

What did the screen give for DAPK2?
robust z-score, knock-down alone: 0.58

With COQ8B, what does the deposit list?
robust z-score, knock-down alone: -0.125

What did the screen give for MYO3B?
robust z-score, knock-down alone: -0.806

For TAF1, what was measured?
robust z-score, knock-down alone: -0.278
